Results as given in patent US20170016916.

Biological target: cardiac troponin I (Troponin I, cTnI) (Homo sapiens) (UniProt P19429)
Assay: binding assay
Conditions: immobilized on metal surface of reactive electrode; HEMT-type transistor biosensor; human serum with 0.033, 1.886 and 33.7 ng/ml Troponin I; protein in an extract; protein details: endogenous in human serum samples; single-stranded DNA

## CGCATGCCAAACGTTGCCTCATAGTTCCCTCCCCGTGTCC [Troponin I aptamer]
  binding result: binds

At least one result comes from cells or an extract, where the contact may be indirect.
